Source: the supplement of paper PMC10849652
The other results are listed elsewhere or left out.

Amino acid sequences for entries named in this document (tags omitted). A change or cut given only in a name is not applied to a line headed by its entry.
UniProt P43246, whole entry, looked up: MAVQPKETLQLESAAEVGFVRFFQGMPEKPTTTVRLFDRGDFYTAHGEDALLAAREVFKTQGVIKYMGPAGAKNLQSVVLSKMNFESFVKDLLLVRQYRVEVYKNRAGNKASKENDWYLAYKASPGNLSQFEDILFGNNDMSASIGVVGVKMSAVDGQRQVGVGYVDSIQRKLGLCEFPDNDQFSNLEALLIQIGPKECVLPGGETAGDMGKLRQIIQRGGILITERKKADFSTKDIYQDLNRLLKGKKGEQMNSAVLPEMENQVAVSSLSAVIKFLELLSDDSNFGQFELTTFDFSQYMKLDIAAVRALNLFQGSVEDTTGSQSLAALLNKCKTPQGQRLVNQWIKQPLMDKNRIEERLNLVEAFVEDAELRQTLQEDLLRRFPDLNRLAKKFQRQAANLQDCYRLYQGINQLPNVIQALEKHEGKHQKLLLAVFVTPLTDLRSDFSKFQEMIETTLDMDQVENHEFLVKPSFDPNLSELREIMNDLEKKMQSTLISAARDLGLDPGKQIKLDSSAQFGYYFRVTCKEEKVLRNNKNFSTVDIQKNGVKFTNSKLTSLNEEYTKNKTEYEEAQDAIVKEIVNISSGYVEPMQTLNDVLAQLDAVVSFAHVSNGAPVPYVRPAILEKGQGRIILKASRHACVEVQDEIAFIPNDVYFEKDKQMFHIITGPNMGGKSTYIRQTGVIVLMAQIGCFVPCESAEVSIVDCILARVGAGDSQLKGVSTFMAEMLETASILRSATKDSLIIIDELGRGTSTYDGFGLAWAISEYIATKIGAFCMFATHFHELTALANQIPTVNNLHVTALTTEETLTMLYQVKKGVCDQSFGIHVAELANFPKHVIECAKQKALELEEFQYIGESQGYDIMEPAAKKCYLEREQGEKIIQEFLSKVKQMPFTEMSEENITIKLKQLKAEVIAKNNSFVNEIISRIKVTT
UniProt Q92614: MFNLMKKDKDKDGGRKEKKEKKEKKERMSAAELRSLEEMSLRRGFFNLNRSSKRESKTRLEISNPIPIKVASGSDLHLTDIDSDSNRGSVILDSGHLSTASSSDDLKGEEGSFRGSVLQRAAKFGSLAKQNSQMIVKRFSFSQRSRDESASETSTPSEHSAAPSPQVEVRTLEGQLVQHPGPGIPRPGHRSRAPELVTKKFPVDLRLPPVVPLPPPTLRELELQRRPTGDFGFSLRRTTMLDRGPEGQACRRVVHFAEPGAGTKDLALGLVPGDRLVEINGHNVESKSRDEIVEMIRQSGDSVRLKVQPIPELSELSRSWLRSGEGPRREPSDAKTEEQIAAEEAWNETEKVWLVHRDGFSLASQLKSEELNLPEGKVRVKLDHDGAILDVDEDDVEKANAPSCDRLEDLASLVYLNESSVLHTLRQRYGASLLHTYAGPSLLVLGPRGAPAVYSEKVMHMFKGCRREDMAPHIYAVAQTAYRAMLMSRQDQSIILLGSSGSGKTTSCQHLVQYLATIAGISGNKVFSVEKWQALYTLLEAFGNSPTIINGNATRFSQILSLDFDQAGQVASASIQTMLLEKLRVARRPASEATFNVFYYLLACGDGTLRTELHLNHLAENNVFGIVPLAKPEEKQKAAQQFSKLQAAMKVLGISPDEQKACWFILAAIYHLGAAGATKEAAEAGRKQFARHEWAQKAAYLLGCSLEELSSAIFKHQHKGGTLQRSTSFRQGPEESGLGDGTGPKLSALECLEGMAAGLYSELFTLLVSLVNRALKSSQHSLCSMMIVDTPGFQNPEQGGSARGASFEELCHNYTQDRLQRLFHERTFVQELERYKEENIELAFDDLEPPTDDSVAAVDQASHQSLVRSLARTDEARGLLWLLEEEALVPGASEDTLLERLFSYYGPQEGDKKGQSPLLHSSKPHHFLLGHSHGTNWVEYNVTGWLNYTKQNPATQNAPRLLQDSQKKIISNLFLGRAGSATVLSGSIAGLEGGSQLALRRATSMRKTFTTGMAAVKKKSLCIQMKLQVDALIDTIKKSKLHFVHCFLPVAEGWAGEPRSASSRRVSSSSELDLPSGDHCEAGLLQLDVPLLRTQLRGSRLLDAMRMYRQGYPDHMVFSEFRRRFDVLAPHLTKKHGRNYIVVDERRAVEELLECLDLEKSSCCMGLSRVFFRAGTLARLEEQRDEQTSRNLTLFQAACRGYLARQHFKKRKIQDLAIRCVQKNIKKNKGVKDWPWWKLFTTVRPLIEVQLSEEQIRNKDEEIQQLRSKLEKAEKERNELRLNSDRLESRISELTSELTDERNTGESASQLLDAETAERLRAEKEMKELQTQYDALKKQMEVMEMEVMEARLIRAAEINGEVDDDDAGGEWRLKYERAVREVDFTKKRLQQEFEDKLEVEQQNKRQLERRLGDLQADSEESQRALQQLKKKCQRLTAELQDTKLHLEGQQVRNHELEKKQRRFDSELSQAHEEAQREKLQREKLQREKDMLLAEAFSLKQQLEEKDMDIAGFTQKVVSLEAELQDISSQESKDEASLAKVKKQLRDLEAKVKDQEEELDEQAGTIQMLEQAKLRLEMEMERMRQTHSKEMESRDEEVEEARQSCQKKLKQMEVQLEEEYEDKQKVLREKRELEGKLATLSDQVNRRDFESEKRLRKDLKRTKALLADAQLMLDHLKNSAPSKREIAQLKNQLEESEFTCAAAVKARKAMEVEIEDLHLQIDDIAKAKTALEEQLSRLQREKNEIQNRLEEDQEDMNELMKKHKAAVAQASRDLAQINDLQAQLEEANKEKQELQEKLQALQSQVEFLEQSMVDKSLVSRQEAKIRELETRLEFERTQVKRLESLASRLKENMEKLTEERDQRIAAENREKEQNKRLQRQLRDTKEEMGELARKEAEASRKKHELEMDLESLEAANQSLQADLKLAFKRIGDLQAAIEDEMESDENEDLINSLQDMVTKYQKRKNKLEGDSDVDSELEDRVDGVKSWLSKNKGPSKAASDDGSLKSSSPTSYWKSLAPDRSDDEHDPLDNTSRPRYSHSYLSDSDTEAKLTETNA
UniProt P82909: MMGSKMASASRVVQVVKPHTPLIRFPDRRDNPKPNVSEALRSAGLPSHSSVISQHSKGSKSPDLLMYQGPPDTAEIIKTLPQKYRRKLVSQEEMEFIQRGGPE
UniProt Q9BRK3: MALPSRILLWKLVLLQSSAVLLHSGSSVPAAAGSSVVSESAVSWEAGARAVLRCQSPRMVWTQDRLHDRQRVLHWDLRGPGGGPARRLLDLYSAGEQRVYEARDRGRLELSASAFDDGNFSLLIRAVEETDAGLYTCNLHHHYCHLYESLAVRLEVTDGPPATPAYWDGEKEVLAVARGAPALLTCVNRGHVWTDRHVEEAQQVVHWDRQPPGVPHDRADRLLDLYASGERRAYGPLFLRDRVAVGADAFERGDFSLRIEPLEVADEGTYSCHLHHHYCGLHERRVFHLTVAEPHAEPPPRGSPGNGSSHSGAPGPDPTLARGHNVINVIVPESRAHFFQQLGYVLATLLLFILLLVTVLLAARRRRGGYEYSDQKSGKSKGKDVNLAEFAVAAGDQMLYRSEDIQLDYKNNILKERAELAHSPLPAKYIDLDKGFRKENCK
UniProt Q99707: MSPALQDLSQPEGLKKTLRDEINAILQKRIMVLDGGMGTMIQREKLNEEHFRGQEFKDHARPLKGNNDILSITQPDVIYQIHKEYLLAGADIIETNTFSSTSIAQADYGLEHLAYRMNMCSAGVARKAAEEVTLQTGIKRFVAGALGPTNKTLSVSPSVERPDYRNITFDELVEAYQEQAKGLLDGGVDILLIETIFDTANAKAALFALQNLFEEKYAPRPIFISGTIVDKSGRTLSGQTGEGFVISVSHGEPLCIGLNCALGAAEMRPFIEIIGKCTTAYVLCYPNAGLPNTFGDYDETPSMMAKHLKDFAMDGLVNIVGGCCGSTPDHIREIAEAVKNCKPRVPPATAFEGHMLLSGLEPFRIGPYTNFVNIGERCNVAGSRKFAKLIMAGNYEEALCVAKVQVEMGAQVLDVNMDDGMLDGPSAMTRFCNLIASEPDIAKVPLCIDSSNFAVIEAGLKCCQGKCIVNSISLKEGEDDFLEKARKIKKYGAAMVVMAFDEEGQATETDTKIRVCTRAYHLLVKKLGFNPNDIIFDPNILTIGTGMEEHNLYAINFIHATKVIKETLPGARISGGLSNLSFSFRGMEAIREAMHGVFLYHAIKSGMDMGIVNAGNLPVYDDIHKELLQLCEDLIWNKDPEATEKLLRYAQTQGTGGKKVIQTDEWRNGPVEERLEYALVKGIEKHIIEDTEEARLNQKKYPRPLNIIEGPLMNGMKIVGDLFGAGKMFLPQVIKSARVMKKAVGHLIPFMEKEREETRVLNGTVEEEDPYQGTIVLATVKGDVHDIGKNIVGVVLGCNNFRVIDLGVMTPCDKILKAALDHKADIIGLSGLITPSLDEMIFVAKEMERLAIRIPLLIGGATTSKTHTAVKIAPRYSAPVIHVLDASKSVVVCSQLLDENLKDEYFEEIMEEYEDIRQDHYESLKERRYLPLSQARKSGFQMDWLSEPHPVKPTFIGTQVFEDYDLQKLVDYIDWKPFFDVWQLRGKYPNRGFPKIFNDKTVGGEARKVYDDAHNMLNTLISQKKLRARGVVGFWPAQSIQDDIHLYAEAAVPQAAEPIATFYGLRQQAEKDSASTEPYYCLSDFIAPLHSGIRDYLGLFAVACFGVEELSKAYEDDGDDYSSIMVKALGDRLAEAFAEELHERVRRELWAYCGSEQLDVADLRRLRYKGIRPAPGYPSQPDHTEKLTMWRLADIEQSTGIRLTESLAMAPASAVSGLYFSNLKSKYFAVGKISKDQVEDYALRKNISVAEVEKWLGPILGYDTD
UniProt Q13330: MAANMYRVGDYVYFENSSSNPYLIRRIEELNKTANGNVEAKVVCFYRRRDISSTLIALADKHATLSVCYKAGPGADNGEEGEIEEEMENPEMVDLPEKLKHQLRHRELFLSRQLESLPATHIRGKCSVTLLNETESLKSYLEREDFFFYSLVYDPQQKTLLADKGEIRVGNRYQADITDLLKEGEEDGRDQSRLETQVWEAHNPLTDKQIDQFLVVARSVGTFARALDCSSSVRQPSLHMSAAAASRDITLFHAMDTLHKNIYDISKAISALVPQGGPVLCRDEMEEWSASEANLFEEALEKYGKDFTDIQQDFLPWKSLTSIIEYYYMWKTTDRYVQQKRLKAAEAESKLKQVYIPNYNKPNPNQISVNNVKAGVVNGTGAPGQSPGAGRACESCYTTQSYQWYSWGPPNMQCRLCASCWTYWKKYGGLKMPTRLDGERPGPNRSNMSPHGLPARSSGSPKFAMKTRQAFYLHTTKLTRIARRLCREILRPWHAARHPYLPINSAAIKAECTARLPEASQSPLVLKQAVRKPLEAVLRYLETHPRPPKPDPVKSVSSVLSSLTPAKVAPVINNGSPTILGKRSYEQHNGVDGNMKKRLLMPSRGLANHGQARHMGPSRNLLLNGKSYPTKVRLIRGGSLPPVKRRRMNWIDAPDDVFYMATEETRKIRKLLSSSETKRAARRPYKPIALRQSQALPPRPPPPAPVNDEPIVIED
UniProt P03886, whole entry, looked up: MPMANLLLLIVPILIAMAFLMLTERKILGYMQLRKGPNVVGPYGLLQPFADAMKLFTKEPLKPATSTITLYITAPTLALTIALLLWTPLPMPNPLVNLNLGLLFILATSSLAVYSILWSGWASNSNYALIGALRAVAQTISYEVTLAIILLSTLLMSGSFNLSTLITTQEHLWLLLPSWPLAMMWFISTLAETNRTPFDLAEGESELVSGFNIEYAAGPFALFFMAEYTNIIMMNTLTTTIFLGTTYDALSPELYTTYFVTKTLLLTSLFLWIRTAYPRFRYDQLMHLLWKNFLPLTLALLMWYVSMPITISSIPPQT
UniProt Q9NVV4: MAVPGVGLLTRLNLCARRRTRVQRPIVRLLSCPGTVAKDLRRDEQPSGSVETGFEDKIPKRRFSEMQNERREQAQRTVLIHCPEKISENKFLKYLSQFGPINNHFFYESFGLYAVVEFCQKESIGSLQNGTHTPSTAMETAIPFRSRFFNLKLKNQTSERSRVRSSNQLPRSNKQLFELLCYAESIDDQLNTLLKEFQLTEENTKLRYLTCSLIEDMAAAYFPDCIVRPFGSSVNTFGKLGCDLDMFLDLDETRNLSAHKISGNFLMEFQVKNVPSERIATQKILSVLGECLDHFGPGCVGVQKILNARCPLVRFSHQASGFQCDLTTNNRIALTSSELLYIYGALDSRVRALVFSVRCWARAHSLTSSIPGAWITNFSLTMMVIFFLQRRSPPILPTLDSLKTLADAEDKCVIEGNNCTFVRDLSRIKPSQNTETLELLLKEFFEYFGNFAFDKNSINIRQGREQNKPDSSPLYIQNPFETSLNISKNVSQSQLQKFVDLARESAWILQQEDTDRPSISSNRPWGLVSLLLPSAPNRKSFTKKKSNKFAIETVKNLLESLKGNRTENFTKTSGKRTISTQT

Legend:
Experiment in all cases: log2 fold change, soluble protein after heating vs DMSO (PISA); higher = thermal stabilisation; K562 cells, 10 uM, 30 min; active = over 0.2 and 3.5 SD of the protein, either way, in both replicates (recomputed)
[1] = compound: C1=CC=C(C=C1)[C@H](COC2=CC3=C(C=C2)NC(=O)N3)NC(=O)C4=CC=CN(C4=O)CC5=CC(=C(C=C5)F)F
How it was run: (§1)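 Values are thermal stability changes relative to control samples and are taken from duplicates. They are stated as log2 fold changes. Before quantification by TMTpro 16plex LC-MS/MS with equalised channel sums, K562 cells at 2×10^6 cells/mL were treated with 10 μM compound for 30 min, heated in aliquots for 3 min across 48°C-58°C, pooled, extracted in PBS with 0.5% NP-40 at 4°C, and centrifuged at 21,000xg for 90 min to give the soluble supernatant.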

[2] = compound: CC1=C(SC2=C1C(=N[C@H](C3=NN=C(N32)C)CC(=O)N)C4=CC=C(C=C4)Cl)C
How it was run: as §1

[3] = compound: CC1=C2C(=CC=C1)N=C(N(C2=O)C3=CC=CC=C3C)CN4C=NC5=C(N=CN=C54)N
How it was run: as §1

[4] = compound: Cc1sc2c(c1C)C(c1ccc(Cl)cc1)=N[C@@H](CC(=O)OC(C)(C)C)c1nnc(C)n1-2
How it was run: as §1

[5] = compound: c1ccc([C@@H]2C[C@H]2NC2CCNCC2)cc1
How it was run: as §1

Measured: log2 fold change

MRPS16 (UniProt Q9Y3D3)
inactive: [1] -0.006 | [2] -0.033 | [3] -0.009 | [4] 0.014 | [5] -0.074

MSH2 (UniProt P43246)
inactive: [1] -0.041 | [2] 0.051 | [3] 0.105 | [4] -0.037 | [5] 0.01

MTCH1 (UniProt Q9NZJ7)
inactive: [1] 0.04 | [2] 0.001 | [3] 0.009 | [4] -0.025 | [5] -0.057

MRPS33 (UniProt Q9Y291)
inactive: [1] 0.005 | [2] -0.057 | [3] -0.114 | [4] 0.098 | [5] -0.002

MYO18A (UniProt Q92614)
inactive: [1] 0.093 | [2] -0.042 | [3] 0.021 | [4] 0.054 | [5] 0

MRPS25 (UniProt P82663)
inactive: [1] -0.002 | [2] -0.05 | [3] -0.067 | [4] 0.059 | [5] 0.014

MYH9 (UniProt P35579)
inactive: [1] -0.027 | [2] 0.04 | [3] -0.012 | [4] -0.022 | [5] -0.038

MRPS36 (UniProt P82909)
inactive: [1] -0.043 | [2] -0.007 | [3] -0.077 | [4] 0.051 | [5] 0.087

MTSS2 (UniProt Q765P7)
inactive: [1] 0.008 | [2] 0.132 | [3] 0.007 | [4] 0.027 | [5] 0.029

MTHFR isoform 2 (UniProt P42898)
inactive: [1] -0.004 | [2] 0.06 | [3] 0.078 | [4] -0.02 | [5] -0.085

Copied from above (two entries):
MYH9 (UniProt P35579)
inactive: [1] -0.027 | [2] 0.04 | [3] -0.012 | [4] -0.022 | [5] -0.038

MRPS36 (UniProt P82909)
inactive: [1] -0.043 | [2] -0.007 | [3] -0.077 | [4] 0.051 | [5] 0.087

Further results follow.

MXRA8 isoform 2 (UniProt Q9BRK3)
inactive: [1] -0.025 | [2] 0.002 | [3] -0.352 | [4] -0.041 | [5] 0.035

MTR (UniProt Q99707)
inactive: [1] 0.009 | [2] -0.043 | [3] 0.023 | [4] 0.084 | [5] -0.018

MRPS15 (UniProt P82914)
inactive: [1] -0.035 | [2] 0.077 | [3] -0.056 | [4] 0.066 | [5] -0.097

MTA1 (UniProt Q13330)
inactive: [1] 0 | [2] 0.007 | [3] 0.084 | [4] 0.036 | [5] 0.001

MTRF1L (UniProt Q9UGC7)
inactive: [1] 0.05 | [2] 0.075 | [3] -0.009 | [4] -0.061 | [5] 0.022

MT-ND4 (UniProt P03905)
inactive: [1] -0.124 | [2] -0.017 | [3] -0.045 | [4] -0.057 | [5] 0.036

MTCH2 (UniProt Q9Y6C9)
inactive: [1] 0.041 | [2] 0.03 | [3] 0.11 | [4] 0.003 | [5] -0.004

MYO1D (UniProt O94832)
inactive: [1] 0.044 | [2] -0.063 | [3] -0.088 | [4] 0.037 | [5] 0.039

MRPS2 (UniProt Q9Y399)
inactive: [1] -0.084 | [2] 0.147 | [3] -0.042 | [4] 0.079 | [5] 0.003

MTHFD1, A0A384N5Y3
inactive: [1] -0.063 | [2] 0.138 | [3] -0.022 | [4] -0.002 | [5] -0.113

MRPS34 (UniProt P82930)
inactive: [1] 0.096 | [2] -0.023 | [3] 0.004 | [4] 0.053 | [5] -0.056

MT-ND1 (UniProt P03886)
inactive: [1] -0.024 | [2] -0.12 | [3] -0.24 | [4] -0.102 | [5] 0.177

MRPS18A isoform 2 (UniProt Q9NVS2)
inactive: [1] 0 | [2] -0.122 | [3] 0.013 | [4] 0.025 | [5] -0.094

MTPAP (UniProt Q9NVV4)
inactive: [1] -0.007 | [2] -0.2 | [3] -0.119 | [4] 0.086 | [5] 0.025
